Laboratory results as given in patent publication US20210308089A1, “METHODS OF TREATING AND/OR PREVENTING VIRAL INFECTIONS AND/OR DISEASES CAUSED BY VIRUSES IN A SUBJECT IN NEED THEREOF” (priority 2020, published 2021).
The source gives many values for each of these; only a part stands here.

Test system: patients of the REDUCE-IT and earlier EPA placebo-controlled trials
Assay: Example 3: adverse events by risk ratio, icosapent ethyl vs placebo (candidate categories; infectious disease terms of interest)
Settings: R-I; Periodontitis

CC/C=C\C/C=C\C/C=C\C/C=C\C/C=C\CCCC(=O)OCC [icosapent ethyl, eicosapentaenoic acid ethyl ester]
Risk Ratio (95% CI): 1.667 (0.399 to 6.971) −2
